Our source for the cell number change and AC50 values is PubChem BioAssay AID2685 (National Center for Advancing Translational Sciences (NCATS), 2010).

A short description of this assay: qHTS Assay for Lipid Storage Modulators in Drosophila S3 Cells.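 On cell number change: cells counted by Cell Tracker Red CMTPX staining in the red channel.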 As to conditions: BODIPY lipid droplet fluorescence, 18-24 h; for cell number change: measured here: cell count max response, cells fed with added oleic acid. An outline of the steps:
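Drosophila S3 cells loaded with oleic acid (400 uM, as added) and compounds at several concentrations; lipid droplets imaged by 488-nm laser-scanning cytometry, 500–530 nm intensity and object ratio to cell channel. Percent activity normalized to 20 uM Triacsin C.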
In general terms: In qHTS, concentration-response curves come from the screen itself.

Setting [1] is: measured here: lipid fluorescence (Fed channel) AC50, cells fed with added oleic acid.
The mark [2] stands for this setting: measured here: cell number channel AC50, cells fed with added oleic acid.

The other results are listed elsewhere or left out. Shown are side measurements of this screen, not its main read-out; they come without a call. Compounds called inactive in the main read-out are mostly missing here. Words in brackets tell the shape of the fitted curve; partial curves, single points and poor fits give uncertain potencies.

One may read the AC50 as the concentration giving half of the maximal activity seen. Lower therefore signals greater potency. Turning to `COc1ccc2c(C(=O)CCl)c[nH]c2c1`, the cell number change was -26.1%. The AC50 under setting [1] was 9.2 µM [falling, partial curve].

As for `CCCCN(C(=O)CCC(=O)Nc1cc(C)on1)C(C(=O)NC1CCCC1)c1ccc(OCC)cc1` (centres undefined), the cell number change is -0.952%.

For the compound `COc1cc(NS(=O)(=O)c2ccc(NC(=O)COc3ccc(C)cc3C)cc2)nc(OC)n1`, the cell number change was -13.2%. In addition, under setting [1], the AC50 is 4.11 µM [falling, single point].

As to `CC(C)(C)NC(=O)NC(=O)CN1CCN(C(c2ccccc2)c2ccccc2)CC1`, the cell number change was 13%. Under setting [2], the AC50 was 4.11 µM [rising, single point]. In addition, the AC50 under setting [1] was 6.51 µM [rising, single point].

As for `COC(=O)c1ccc2c(=O)n(CCCCCC(=O)NCc3ccc4c(c3)OCO4)c(=O)[nH]c2c1`, the cell number change was determined as 5.83%.

For `Oc1cccc(/C=N/NC(=S)NCCN2CCOCC2)c1O`, the cell number change amounted to 64.3%. Under setting [2], the AC50 is 20.6 µM [rising, single point]. Moreover, the AC50 under setting [1] is 18.4 µM [rising, single point].

For `Cc1ccc(CN2[C@@H]3c4ccccc4C[C@@H]3OCCS2(=O)=O)cc1`, the cell number change is -2.69%. The concentration at half-maximal activity (AC50) under setting [1] is 0.651 µM [falling, single point].

Turning to `CCc1nc2c(n1O)CCc1nonc1-2`, the cell number change worked out at 5.22%. Under setting [1], the AC50 was 20.6 µM [falling, partial curve].

Take `NS(=O)(=O)c1ccc(NC(=O)c2ccc(S(=O)(=O)N3CCc4ccccc43)cc2)cc1`: the cell number change is -6.85%. Further, the AC50 under setting [2] is 0.116 µM [falling, full curve, poor fit]. Also, under setting [1], the AC50 was 0.116 µM [falling, full curve, poor fit].

For `Cc1ccc(C(=O)N/C(=C\c2ccc(-c3cccc([N+](=O)[O-])c3)o2)C(=O)NCCCN(C)C)cc1`, the cell number change was -4.05%. Moreover, the AC50 under setting [1] is 1.46 µM [rising, partial curve].

As to `COC(=O)Cc1ccc(N(Cc2ccccc2F)S(=O)(=O)c2ccc(C)cc2)cc1`, the cell number change was 20.5%. In addition, under setting [1], the AC50 was 4.11 µM [rising, full curve].

For the compound `Cc1ccc(C)c(N(CC(=O)NC2CCCC2)C(=O)CCC(=O)Nc2cc(C)on2)c1`, the cell number change amounted to 28.2%.

With `O=C(CN1CCC(NC(=O)Nc2ccccc2)CC1)Nc1ccccc1F`, the cell number change was -2.02%. Further, the AC50 under setting [1] is 7.31 µM [rising, partial curve].

On to `COc1ccccc1N1CCN(CC(=O)Nc2ccc(Cl)c(C(F)(F)F)c2)CC1`, for which the cell number change is -41.4%. Besides, the AC50 under setting [2] was 16.4 µM [falling, partial curve]. Moreover, the AC50 under setting [1] is 20.6 µM [falling, partial curve].

Regarding `O=C(CN1C(=O)NC2(CCCCCC2)C1=O)N1CCN(c2ccccc2)CC1`, the cell number change was -2.51%. For the same compound, the AC50 under setting [1] is 0.082 µM [falling, full curve, poor fit].

With `CN(c1ccccc1)S(=O)(=O)c1cccc(C(=O)Nc2nccs2)c1`, the cell number change was -46.8%. Moreover, under setting [2], the AC50 is 20.6 µM [falling, single point]. In addition, the concentration at half-maximal activity (AC50) under setting [1] is 6.51 µM [rising, partial curve, poor fit].
